The target of one assay is GFP-GABARAP (UniProt O95166). As to the kind of experiment: Co-IP.
Assay [1] addresses Myc-VPS37A (in vitro translated, [35S]-radiolabeled, full length) (UniProt Q8NEZ2). Kind of assay: GST pulldown of in vitro translated [35S] Myc-VPS37A (FIG. 1A).
The target is the same in assay [2]. As to the kind of experiment: discussion of the pulldown and Co-IP results; assay not given.

By UniProt entry, the sequences of proteins in these tests, tags left out. Where a name states a change or a piece, a line headed by the entry shows the natural chain unless it says otherwise.
UniProt O95166: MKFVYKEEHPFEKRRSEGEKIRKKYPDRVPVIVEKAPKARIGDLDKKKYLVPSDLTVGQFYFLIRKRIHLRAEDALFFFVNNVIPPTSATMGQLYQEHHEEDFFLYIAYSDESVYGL
UniProt Q8NEZ2: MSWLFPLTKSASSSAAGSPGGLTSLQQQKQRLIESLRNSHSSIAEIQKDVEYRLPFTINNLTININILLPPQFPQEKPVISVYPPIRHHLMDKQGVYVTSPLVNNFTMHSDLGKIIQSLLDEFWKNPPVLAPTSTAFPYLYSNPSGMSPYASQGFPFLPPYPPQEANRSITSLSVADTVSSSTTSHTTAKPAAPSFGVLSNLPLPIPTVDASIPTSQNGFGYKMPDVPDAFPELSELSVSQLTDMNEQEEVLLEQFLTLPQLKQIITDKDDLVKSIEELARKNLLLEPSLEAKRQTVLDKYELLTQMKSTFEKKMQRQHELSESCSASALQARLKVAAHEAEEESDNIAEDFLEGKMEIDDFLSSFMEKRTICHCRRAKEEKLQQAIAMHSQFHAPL
UniProt P60520: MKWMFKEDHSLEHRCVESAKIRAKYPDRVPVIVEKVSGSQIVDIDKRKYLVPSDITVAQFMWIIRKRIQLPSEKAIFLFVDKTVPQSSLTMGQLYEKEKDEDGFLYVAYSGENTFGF
UniProt Q9BXW4: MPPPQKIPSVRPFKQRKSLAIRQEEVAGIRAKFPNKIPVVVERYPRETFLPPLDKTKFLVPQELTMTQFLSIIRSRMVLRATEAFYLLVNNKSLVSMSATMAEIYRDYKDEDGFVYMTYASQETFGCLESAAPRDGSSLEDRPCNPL

No constants are given. Whether binding was seen depends on the method and setting. Binding seen in cells or lysates may run through a third protein. Some entries that bind do so weakly or less than the wild type.

On to “FLAG-VPS37A^Nter-EGFP (VPS37A residues 1-22 fused to the N-terminus of GFP) (from UniProt Q8NEZ2 1-22)”, for which the binding result with GFP-GABARAP is “binds”. Take GST-GABARAP (from UniProt O95166 1-117): the binding entry in assay [1] and in assay [2] was “binds” throughout.

On to “GST-GABARAP-L2 (from UniProt P60520 1-117)”, for which, in assay [1], the binding result is “binds”. For GST-LC3C (from UniProt Q9BXW4 1-147), the binding result in assay [1] is on record as “binds”.

For the origin of these results see patent publication US20250043285A1, “Mammalian ATG8 Proteins and ATG9A Direct Sealing of Autophagosomal Membranes” (UNM Rainforest Innovations, priority 2023, published 2025).
